Results are given in words; binding and its absence hold for the method and conditions named. For part of these data: Binding can be weak; no strength is given.
How the values were obtained:
[1] = target: Endogenous canine PD-L1 on K9TCC canine bladder cancer cells (K9TCC / K9TCC^nRFP) (canine); experiment: flow cytometry on K9TCC^nRFP cells stimulated with 50 ng/ml canine IFNγ for 12 hours
[2] = target: Endogenous canine PD-L1 on K9TCC canine bladder cancer cells (K9TCC / K9TCC^nRFP) (canine); experiment: flow cytometry on K9TCC cells stimulated with 50 ng/ml canine IFNγ for 12 hours
[3] = target: cPD-L2 protein (canine PD-L2) (canine); experiment: ELISA, bound Ab as OD450

binding [1]: binds | binding [2]: binds | binding [3]: no binding
B1: cPD-L1 12C10E4 chimeric antibody (mouse variable domains, canine IgG2 heavy and canine kappa light constant domains) (antibody, V domains shown)
VH: QVQLKQSGPGLVQPSQSLSITCTISGFSLTSFGVHWVRQSPGKGLEWLGVIWSGGSTDYNAAFTSRLSINKDNSKSQVFFKMNSLQADDTAIYYCARGGGPDWYFDVWGTGTTVTVSS
VL: DIVLTQSPASLAVSLGQRATISCRASESVEYYGTSLMQWYQQKPGQPPKLLIFAASNVKSGVPARFSGSGSGTDFSLNIHPVEEDDIAMYFCQQSGKVPHTFGGGTKLEIKR

Source: patent US20260193355A1
